Structures can show the parent of a compound that is named as a salt. Some of the results follow. Most entries show no effect beyond the scatter of the controls.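 Reh is a human leukemia cell line; the read-out is the median γH2AX antibody signal in S-phase cells by flow cytometry, with the score counting standard deviations from the median difference of each paired set of plates. Scores above 2.5 were called candidate hits, while scores below -2 mark compounds that lowered the MK1775-induced damage.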

The test system of the experiment is Reh. As to the kind of experiment: Z' of S-phase gammaH2AX difference (drug + MK1775 minus drug alone) (Z-score); higher = stronger synergistic S-phase DNA damage with MK1775. The conditions noted are these: MK1775 concentration 400 nM; first compound 10 µM; 4 h.
As to `Brc1c(NC2=NCCN2)ccc2nccnc12` + C=CCn1c(=O)c2cnc(Nc3ccc(N4CCN(C)CC4)cc3)nc2n1-c1cccc(C(C)(C)O)n1 [MK1775], the “Z' of S-phase gammaH2AX difference (Z-score)” value is inactive: 0.751.

For the compound `CN(C)CCOC(=O)COc1ccc(Cl)cc1` [Centrophenoxine hydrochloride] + C=CCn1c(=O)c2cnc(Nc3ccc(N4CCN(C)CC4)cc3)nc2n1-c1cccc(C(C)(C)O)n1 [MK1775], the “Z' of S-phase gammaH2AX difference (Z-score)” value was inactive: 0.197. Consider `N#C/C(=C\c1ccc(O)c(O)c1)C(=O)NCCCNC(=O)/C(C#N)=C/c1ccc(O)c(O)c1` [Tyrphostin AG 537] + C=CCn1c(=O)c2cnc(Nc3ccc(N4CCN(C)CC4)cc3)nc2n1-c1cccc(C(C)(C)O)n1 [MK1775], for which the “Z' of S-phase gammaH2AX difference (Z-score)” value is inactive: 0.028. Take `N=C(N)N/N=C/c1c(Cl)cccc1Cl` [Guanabenz acetate] + C=CCn1c(=O)c2cnc(Nc3ccc(N4CCN(C)CC4)cc3)nc2n1-c1cccc(C(C)(C)O)n1 [MK1775]: the “Z' of S-phase gammaH2AX difference (Z-score)” value was inactive: -0.867.

As to `OC(CCN1CCCCC1)(c1ccccc1)C1CCCCC1` (stereo unspecified) [Trihexyphenidyl hydrochloride] + C=CCn1c(=O)c2cnc(Nc3ccc(N4CCN(C)CC4)cc3)nc2n1-c1cccc(C(C)(C)O)n1 [MK1775], the “Z' of S-phase gammaH2AX difference (Z-score)” value is inactive: -0.14. In the case of `CN(CCOc1ccc(CC2SC(=O)NC2=O)cc1)c1ccccn1` (stereo unspecified) [Rosiglitazone (Avandia)] + C=CCn1c(=O)c2cnc(Nc3ccc(N4CCN(C)CC4)cc3)nc2n1-c1cccc(C(C)(C)O)n1 [MK1775], the “Z' of S-phase gammaH2AX difference (Z-score)” value was inactive: 0.0939. Next, `Fc1cc(-c2cccc3ncc(-c4cnn(C5CCNCC5)c4)nc23)cc(F)c1CN1CCOCC1` + C=CCn1c(=O)c2cnc(Nc3ccc(N4CCN(C)CC4)cc3)nc2n1-c1cccc(C(C)(C)O)n1 [MK1775]: inactive: -0.471. Turning to `O=C(O)/C(=C\c1c(C(=O)O)[nH]c2cc(Cl)cc(Cl)c12)c1ccccc1` + C=CCn1c(=O)c2cnc(Nc3ccc(N4CCN(C)CC4)cc3)nc2n1-c1cccc(C(C)(C)O)n1 [MK1775], the “Z' of S-phase gammaH2AX difference (Z-score)” value was inactive: 1.28. The figure for `CN(C)[C@@H]1C(O)=C(C(N)=O)C(=O)[C@@]2(O)C(O)=C3C(=O)c4c(O)ccc(Cl)c4[C@@H](O)[C@H]3C[C@@H]12` [Demeclocycline hydrochloride] + C=CCn1c(=O)c2cnc(Nc3ccc(N4CCN(C)CC4)cc3)nc2n1-c1cccc(C(C)(C)O)n1 [MK1775] is inactive: 0.362. `N[C@@H](C(=O)N[C@@H]1C(=O)N2C(C(=O)O)=C(Cl)CS[C@H]12)c1ccccc1` [Cefaclor] + C=CCn1c(=O)c2cnc(Nc3ccc(N4CCN(C)CC4)cc3)nc2n1-c1cccc(C(C)(C)O)n1 [MK1775]: the “Z' of S-phase gammaH2AX difference (Z-score)” value is inactive: 1.18. For `CC(C)NC[C@H](O)c1ccc(O)c(O)c1` [R(-)-Isoproterenol (+)-bitartrate] + C=CCn1c(=O)c2cnc(Nc3ccc(N4CCN(C)CC4)cc3)nc2n1-c1cccc(C(C)(C)O)n1 [MK1775], the “Z' of S-phase gammaH2AX difference (Z-score)” value is inactive: 1.29. On to `CC[C@@H]1/C=C(\C)C[C@H](C)C[C@H](OC)[C@H]2O[C@@](O)(C(=O)C(=O)N3CCCC[C@H]3C(=O)O[C@H](/C(C)=C/[C@@H]3CC[C@H](Cl)[C@H](OC)C3)[C@H](C)[C@@H](O)CC1=O)[C@H](C)C[C@@H]2OC` [Pimecrolimus] + C=CCn1c(=O)c2cnc(Nc3ccc(N4CCN(C)CC4)cc3)nc2n1-c1cccc(C(C)(C)O)n1 [MK1775], for which the “Z' of S-phase gammaH2AX difference (Z-score)” value was inactive: -0.0968. As for `O=C(O)c1cc(O)c2ccc(Cl)cc2n1` [7-Chlorokynurenic acid] + C=CCn1c(=O)c2cnc(Nc3ccc(N4CCN(C)CC4)cc3)nc2n1-c1cccc(C(C)(C)O)n1 [MK1775], the “Z' of S-phase gammaH2AX difference (Z-score)” value is inactive: 0.0234.

With `NCCS(=O)O` [Hypotaurine] + C=CCn1c(=O)c2cnc(Nc3ccc(N4CCN(C)CC4)cc3)nc2n1-c1cccc(C(C)(C)O)n1 [MK1775], the “Z' of S-phase gammaH2AX difference (Z-score)” value is inactive: 1.07.

For the compound `NOCC(=O)O` [O-(Carboxymethyl)hydroxylamine hemihydrochloride] + C=CCn1c(=O)c2cnc(Nc3ccc(N4CCN(C)CC4)cc3)nc2n1-c1cccc(C(C)(C)O)n1 [MK1775], the “Z' of S-phase gammaH2AX difference (Z-score)” value is inactive: 0.277. With `C=CC(=O)N1CCC[C@@H](n2nc(-c3ccc(Oc4ccccc4)cc3)c3c(N)ncnc32)C1` + C=CCn1c(=O)c2cnc(Nc3ccc(N4CCN(C)CC4)cc3)nc2n1-c1cccc(C(C)(C)O)n1 [MK1775], the “Z' of S-phase gammaH2AX difference (Z-score)” value was inactive: -0.588. Consider `CC1=C(CC(=O)O)c2cc(F)ccc2/C1=C\c1ccc([S+](C)[O-])cc1` (stereo unspecified) [Sulindac] + C=CCn1c(=O)c2cnc(Nc3ccc(N4CCN(C)CC4)cc3)nc2n1-c1cccc(C(C)(C)O)n1 [MK1775], for which the “Z' of S-phase gammaH2AX difference (Z-score)” value is inactive: -0.479.

For `CN(C)CCCO[C@@H]1[C@H]2OC(C)(C)O[C@H]2O[C@@H]1[C@H](O)CO` [Amiprilose hydrochloride] + C=CCn1c(=O)c2cnc(Nc3ccc(N4CCN(C)CC4)cc3)nc2n1-c1cccc(C(C)(C)O)n1 [MK1775], the “Z' of S-phase gammaH2AX difference (Z-score)” value is inactive: -0.575. Turning to `Cc1nc(N)sc1-c1ccnc(Nc2ccc(N3CCOCC3)cc2)n1` + C=CCn1c(=O)c2cnc(Nc3ccc(N4CCN(C)CC4)cc3)nc2n1-c1cccc(C(C)(C)O)n1 [MK1775], the “Z' of S-phase gammaH2AX difference (Z-score)” value was inactive: -0.977. Take `CCc1cccc2c3c([nH]c12)C(CC)(CC(=O)O)OCC3` (stereo unspecified) [Etodolac] + C=CCn1c(=O)c2cnc(Nc3ccc(N4CCN(C)CC4)cc3)nc2n1-c1cccc(C(C)(C)O)n1 [MK1775]: the “Z' of S-phase gammaH2AX difference (Z-score)” value is inactive: -0.702. With `C[C@@H]1CN(CC(=O)Nc2ccc3c(c2)Cc2cccc(-c4cc(=O)cc(N5CCOCC5)o4)c2S3)C[C@H](C)O1` + C=CCn1c(=O)c2cnc(Nc3ccc(N4CCN(C)CC4)cc3)nc2n1-c1cccc(C(C)(C)O)n1 [MK1775], the “Z' of S-phase gammaH2AX difference (Z-score)” value is inactive: -0.214. With `COc1ccc(CNC(=O)Nc2ncc([N+](=O)[O-])s2)cc1` + C=CCn1c(=O)c2cnc(Nc3ccc(N4CCN(C)CC4)cc3)nc2n1-c1cccc(C(C)(C)O)n1 [MK1775], the “Z' of S-phase gammaH2AX difference (Z-score)” value is inactive: 0.0362. Consider `CCCn1c(=O)c2[nH]c(-c3ccc(S(=O)(=O)O)cc3)nc2n(CCC)c1=O` [1,3-Dipropyl-8-p-sulfophenylxanthine] + C=CCn1c(=O)c2cnc(Nc3ccc(N4CCN(C)CC4)cc3)nc2n1-c1cccc(C(C)(C)O)n1 [MK1775], for which the “Z' of S-phase gammaH2AX difference (Z-score)” value is inactive: -0.438.

On to `Cc1ccccc1N1C(=O)c2cc(S(N)(=O)=O)c(Cl)cc2NC1C` (stereo unspecified) [Metolazone] + C=CCn1c(=O)c2cnc(Nc3ccc(N4CCN(C)CC4)cc3)nc2n1-c1cccc(C(C)(C)O)n1 [MK1775], for which the “Z' of S-phase gammaH2AX difference (Z-score)” value was inactive: 0.48. `O=C1N(c2ccccc2)c2ccccc2C1(Cc1ccncc1)Cc1ccncc1` [Linopirdine] + C=CCn1c(=O)c2cnc(Nc3ccc(N4CCN(C)CC4)cc3)nc2n1-c1cccc(C(C)(C)O)n1 [MK1775]: the “Z' of S-phase gammaH2AX difference (Z-score)” value is inactive: 0.597.

For the compound `COc1nc(-c2ccc3c(c2)OCO3)n(-c2ccc(NC(=O)CSc3ccccc3)cc2)n1` [SecinH3] + C=CCn1c(=O)c2cnc(Nc3ccc(N4CCN(C)CC4)cc3)nc2n1-c1cccc(C(C)(C)O)n1 [MK1775], the “Z' of S-phase gammaH2AX difference (Z-score)” value is inactive: 0.23. With `Nc1cccc2c1CN(C1CCC(=O)NC1=O)C2=O` (stereo unspecified) [Lenalidomide] + C=CCn1c(=O)c2cnc(Nc3ccc(N4CCN(C)CC4)cc3)nc2n1-c1cccc(C(C)(C)O)n1 [MK1775], the “Z' of S-phase gammaH2AX difference (Z-score)” value is inactive: 0.0806. Turning to `Nc1nc(SCc2ccc([N+](=O)[O-])cc2)c2ncn([C@@H]3O[C@H](CO)[C@H](O)C3O)c2n1` (stereo partly drawn) [S-(4-Nitrobenzyl)-6-thioguanosine] + C=CCn1c(=O)c2cnc(Nc3ccc(N4CCN(C)CC4)cc3)nc2n1-c1cccc(C(C)(C)O)n1 [MK1775], the “Z' of S-phase gammaH2AX difference (Z-score)” value was inactive: 0.0301.

Take `C[C@]12CC[C@@H]3c4ccc(O)cc4CC[C@H]3[C@@H]1CCC2=O` [Estrone] + C=CCn1c(=O)c2cnc(Nc3ccc(N4CCN(C)CC4)cc3)nc2n1-c1cccc(C(C)(C)O)n1 [MK1775]: the “Z' of S-phase gammaH2AX difference (Z-score)” value was inactive: 0.452. The figure for `CCCCCCCCc1ccc(CCC(N)(CO)CO)cc1` [Fingolimod (FTY720)] + C=CCn1c(=O)c2cnc(Nc3ccc(N4CCN(C)CC4)cc3)nc2n1-c1cccc(C(C)(C)O)n1 [MK1775] is inactive: -0.675; for `CCCCCCCC/C=C\CCCCCCCC(=O)NCCc1ccc(O)c(O)c1` [N-Oleoyldopamine] + C=CCn1c(=O)c2cnc(Nc3ccc(N4CCN(C)CC4)cc3)nc2n1-c1cccc(C(C)(C)O)n1 [MK1775] it is active: 10.8; for `CC(=O)OCC1=C(C(=O)O)N2C(=O)[C@@H](NC(=O)CSc3ccncc3)[C@H]2SC1` [Cephapirin sodium] + C=CCn1c(=O)c2cnc(Nc3ccc(N4CCN(C)CC4)cc3)nc2n1-c1cccc(C(C)(C)O)n1 [MK1775] it is inactive: 0.464. For `CNCCC(Oc1ccccc1OC)c1ccccc1` (stereo unspecified) [Nisoxetine hydrochloride] + C=CCn1c(=O)c2cnc(Nc3ccc(N4CCN(C)CC4)cc3)nc2n1-c1cccc(C(C)(C)O)n1 [MK1775], the “Z' of S-phase gammaH2AX difference (Z-score)” value is inactive: -0.864. Next, `CC1CNCCN1S(=O)(=O)c1cccc2cnccc12` (stereo unspecified) + C=CCn1c(=O)c2cnc(Nc3ccc(N4CCN(C)CC4)cc3)nc2n1-c1cccc(C(C)(C)O)n1 [MK1775]: inactive: -1.15. With `CC1CNCCN1S(=O)(=O)c1cccc2cnccc12` (stereo unspecified) [H-7 dihydrochloride] + C=CCn1c(=O)c2cnc(Nc3ccc(N4CCN(C)CC4)cc3)nc2n1-c1cccc(C(C)(C)O)n1 [MK1775], the “Z' of S-phase gammaH2AX difference (Z-score)” value is inactive: -0.177. For the compound `O=NN(CCCl)C(=O)NC1CCCCC1` [Lomustine (CeeNU)] + C=CCn1c(=O)c2cnc(Nc3ccc(N4CCN(C)CC4)cc3)nc2n1-c1cccc(C(C)(C)O)n1 [MK1775], the “Z' of S-phase gammaH2AX difference (Z-score)” value was inactive: 0.209.
